Measurements as given in the supplement of paper PMC11006884.
This is a selection; strong and weak results do not stand in their true shares.

Compound: COC(=O)C#Cc1ccccc1 [methyl 3-phenylpropiolate]
Assay: log2 ratio of iodoacetamide-alkyne labeling of the cysteine site, DMSO over compound (competition); higher = stronger covalent engagement of the cysteine by the compound, active = 1 or more
Settings: 500 µM; treatment time 1 h; system: HEK293T cell lysate
How it was run: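 HEK293T lysate (2 mg/mL) was incubated with electrophile (500 µM) or vehicle for 1 h at ambient temperature and then with iodoacetamide alkyne for 1 h. Labelled proteins were clicked to sCIP-TMT reagents, pooled, digested, enriched on streptavidin and measured by Orbitrap Eclipse LC-MS/MS with FAIMS, with FragPipe quantification. The per-cysteine log2 competition ratio is mean control-channel reporter intensity over mean compound-channel reporter intensity. Across three replicates with duplicate channels, cysteines quantified in only one replicate were excluded.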

log2 ratio of iodoacetamide-alkyne labeling, active:
SQSTM1 C113 (UniProt Q13501) 1.2
SPCS2 C26 (UniProt Q15005) 1.62

log2 ratio of iodoacetamide-alkyne labeling, inactive:
NUMA1 C375 (UniProt Q14980) -0.109
SMC1A C1115 (UniProt Q14683) 0.186
KRR1 C102 (UniProt Q13601) 0.172
CKAP5 C1500 (UniProt Q14008) 0.292
GOLGB1 C1257 (UniProt Q14789) 0.301
HNRNPD C126 (UniProt Q14103) 0.291
KPNB1 C826 (UniProt Q14974) 0.76
CUL3 C636 (UniProt Q13618) 0.464
UniProt Q13557_C373 -0.174
SMC1A C781 (UniProt Q14683) -0.0606
CKAP5 C1911 (UniProt Q14008) 0.35
NUMA1 C2009 (UniProt Q14980) 0.381
CAMK1 C354 (UniProt Q14012) 0.189
ESPL1 C294 (UniProt Q14674) 0.577
PDCD11 C1218 (UniProt Q14690) 0.277
DCTN2 C240 (UniProt Q13561) 0.566
PEX6 C798 (UniProt Q13608) 0.255
BMS1 C317 (UniProt Q14692) 0.0642
CHD4 C1827 (UniProt Q14839) 0.345
DDX39B C165 (UniProt Q13838) -0.0098

Nothing new here: an excerpt of the list.
log2 ratio of iodoacetamide-alkyne labeling, inactive:
BMS1 C317 (UniProt Q14692) 0.0642
CHD4 C1827 (UniProt Q14839) 0.345
